The subject of the test is BDF1 mice, P388 leukemia ip, median survival T/C. As to the kind of experiment: NCI In Vivo Anticancer Drug Screen. Data for tumor model P388 Leukemia (intraperitoneal) in B6D2F1 (BDF1) mice. The following applies: T/C endpoint: median survival time, higher T/C = longer survival. The procedure: The antitumor activity of compounds was measured in mice bearing transplantable tumors. Survival or tumor size were measured and the results are expressed as the measurement made in the treated group (T) divided by the measurement made in the vehicle treated control group (C). The tumor model used in this assay is P388 Leukemia (intraperitoneal) in B6D2F1 (BDF1) mice

[1] abbreviates: dose: 12.5 mg/kg/injection, schedule: Q01DX009 (ip), vehicle: saline.
Setting [2] is: dose: 25.0 mg/kg/injection, schedule: Q01DX009 (ip), vehicle: saline.
The mark [3] stands for this setting: dose: 100.0 mg/kg/injection, schedule: Q01DX009 (ip), vehicle: saline.
Where [4] appears, read: dose: 200.0 mg/kg/injection, schedule: Q01DX009 (ip), vehicle: saline.
[5] abbreviates: dose: 400.0 mg/kg/injection, schedule: Q01DX009 (ip), vehicle: saline.
[6] abbreviates: dose: 50.0 mg/kg/injection, schedule: Q01DX009 (ip), vehicle: saline.
Setting [7] is: dose: 100.0 mg/kg/injection, schedule: Q01DX009 (ip), vehicle: saline with Tween-80.

The list shows only some results of the screen, not a fair sample: it is rich in T/C values a quarter to a half above the control, in often repeated tests (any T/C) and in doses without a T/C. Further doses and runs are listed elsewhere. T/C gives the treated animals as a percentage of the vehicle group. Some entries give survivors of the animals treated and no T/C: the source holds a T/C of zero for them, seemingly a mark for toxic or unscored doses. Some survivor counts are full or nearly so, which does not show that the dose was tolerated: survival well below the control is almost never listed, so the zero probably covers shortened survival too. Survivors were counted at the toxicity check, usually on the fifth day, unless a day is given; later deaths do not show. Schedules are NCI's codes, read here as Q, the interval in days (D) or hours (H), X, the number of doses. Some doses were run more than once; the values are given in rising order. For survival time, the PubChem record calls one and a half times the control and up active, and a quarter to a half above the control has no call in these data; cut-offs in other NCI protocols can differ.

Regarding `COc1ccc(/C=C(\C)[N+](=O)[O-])cc1OC`, the T/C (dose: 50.0 mg/kg/injection, schedule: Q01DX009 (ip), vehicle: other) was 125 % of control.
With `COc1ccc2[nH]c(=O)c(C)c(C)c2c1`, the survivor count is 6 of 6 under setting [1]; 6 of 6 under setting [2]; 6 of 6 under setting [3]; 6 of 6 under setting [4]; 6 of 6 under setting [5].
With `O=[N+]([O-])c1ccc(O)c(C2N(Cc3ccc(N(CCCl)CCCl)cc3)CCCN2Cc2ccc(N(CCCl)CCCl)cc2)c1`, the T/C (dose: 50.0 mg/kg/injection, schedule: Q01DX010 (ip), vehicle: carboxymethylcellulose (CMC)) is 125 % of control.
For the molecule `COc1cc(C=Nc2cc(Br)c(O)c(Br)c2)ccc1N(CCCl)CCCl`, the T/C is, setting by setting: (dose: 2.3 mg/kg/injection, schedule: Q04DX003 (ip), vehicle: Klucel (hydroxypropylcellulose) (HPC)) 127 % of control; (dose: 6.1 mg/kg/injection, schedule: Q01DX009 (ip), vehicle: Klucel (hydroxypropylcellulose) (HPC)) 129 % of control; (dose: 9.37 mg/kg/injection, schedule: Q01DX009 (ip), vehicle: Klucel (hydroxypropylcellulose) (HPC)) 141 % of control; (dose: 14.1 mg/kg/injection, schedule: Q01DX009 (ip), vehicle: Klucel (hydroxypropylcellulose) (HPC)) 136 % of control; (dose: 18.75 mg/kg/injection, schedule: Q01DX009 (ip), vehicle: Klucel (hydroxypropylcellulose) (HPC)) 140 % of control. Besides, the survivor count (dose: 28.12 mg/kg/injection, schedule: Q04DX003 (ip), vehicle: Klucel (hydroxypropylcellulose) (HPC)) was 2 of 6 and the survivor count (dose: 75.0 mg/kg/injection, schedule: Q04DX003 (ip), vehicle: Klucel (hydroxypropylcellulose) (HPC)) is on record as 6 of 6.
On to `O=C(O)c1occ(Cl)c1Cl`, for which the survivor count (dose: 400.0 mg/kg/injection, schedule: Q04DX003 (ip), vehicle: water) was 3 of 6.
For `CSc1nc(Cl)c(Br)c(Sc2nc(N)nc3nc[nH]c23)n1`, the T/C is 129 % of control (dose: 200.0 mg/kg/injection, schedule: Q04DX003 (ip), vehicle: saline with Tween-80) and 125 % of control (dose: 300.0 mg/kg/injection, schedule: Q04DX003 (ip), vehicle: saline with Tween-80).
Consider `Cc1cccn2c(C)nnc12`, for which the survivor count (dose: 200.0 mg/kg/injection, schedule: Q01DX009 (ip), vehicle: saline with Tween-80) is 0 of 6.
As to `CCCNc1ncnc2c1cnn2C`, the survivor count reads like this: under setting [6], 6 of 6; under setting [3], 6 of 6; under setting [4], 0 of 6; (dose: 400.0 mg/kg/injection, schedule: Q04DX003 (ip), vehicle: saline) 1 of 6.
`COc1cc(Cc2nccc3cc(OC)c(OC)cc23)c(C(C)=O)cc1OC`: the T/C was 142 % of control (dose: 12.0 mg/kg/injection, schedule: Q01DX009 (ip), vehicle: saline) and 142 % of control (dose: 18.0 mg/kg/injection, schedule: Q01DX009 (ip), vehicle: saline).
Regarding `O=C1CCCCCC1Cc1cc(O)c(CC2CCCCCC2=O)cc1O` (configuration not stated), the T/C under setting [7] was 128 % of control.
Regarding `CNCCOC(=O)/C=C1/CCC2C(C(O)CC3C(C)(C(=O)OC)CCCC23C)C1C` (configuration not stated), the survivor count is 1 of 6 under setting [1]; 0 of 6 under setting [2]; 0 of 6 under setting [6]; 0 of 3 under setting [3]; 0 of 3 under setting [4]; 0 of 3 under setting [5].
With `CN1CCC(COC(=O)CC(C)(C)C)C1` (configuration not stated), the survivor count was 0 of 4 (dose: 200.0 mg/kg/injection, schedule: Q01DX009 (ip), vehicle: water); 0 of 4 (dose: 400.0 mg/kg/injection, schedule: Q01DX009 (ip), vehicle: water); 0 of 4 (dose: 800.0 mg/kg/injection, schedule: Q01DX009 (ip), vehicle: water); 0 of 4 (dose: 1400.0 mg/kg/injection, schedule: Q01DX009 (ip), vehicle: water).
With `Cc1cc(=O)n2c3c(c4c(cc13)c(CBr)cc(=O)n4C)OC2`, the T/C runs as follows: (dose: 100.0 mg/kg/injection, schedule: Q01DX001 (ip), vehicle: Klucel (hydroxypropylcellulose) (HPC)) 135 % of control; (dose: 200.0 mg/kg/injection, schedule: Q01DX001 (ip), vehicle: Klucel (hydroxypropylcellulose) (HPC)) 135 % of control; (dose: 400.0 mg/kg/injection, schedule: Q01DX001 (ip), vehicle: Klucel (hydroxypropylcellulose) (HPC)) 125 % of control.
As for `Nc1ccccc1C(=O)OCCc1ccccc1`, the T/C (dose: 200.0 mg/kg/injection, schedule: Q01DX009 (ip), vehicle: Klucel (hydroxypropylcellulose) (HPC)) is 135 % of control and the T/C (dose: 400.0 mg/kg/injection, schedule: Q01DX009 (ip), vehicle: Klucel (hydroxypropylcellulose) (HPC)) was 140 % of control.
As to `CN1C(=O)C(Br)=C(c2cccs2)C1=O`, the survivor count (dose: 100.0 mg/kg/injection, schedule: Q01DX001 (ip), vehicle: saline with Tween-80) is 0 of 6.
As for `O=c1c2oc3ccccc3c2cnn1CO`, under “dose: 50.0 mg/kg/injection, schedule: Q01DX009 (ip), vehicle: saline with Tween-80”, the T/C was 138 % of control.
As to `COc1cc(C(=O)OC2c3ccccc3CCC2N(C)C)cc(OC)c1OC` (configuration not stated), under setting [3], the T/C is 126 % of control. In addition, the survivor count under setting [4] is 0 of 6.
As for `O=C1c2cc3c(cc2CCC1c1ccc2c(c1)OCO2)OCO3` (configuration not stated), the survivor count (dose: 80.0 mg/kg/injection, schedule: Q01DX009 (ip), vehicle: saline with Tween-80) is on record as 6 of 6.
For the molecule `O=C1C=C/C(=N/S(=O)(=O)c2ccccc2)c2ccccc21`, the survivor count is 6 of 6 (dose: 1.5 mg/kg/injection, schedule: Q01DX009 (ip), vehicle: DMSO); 6 of 6 (dose: 3.0 mg/kg/injection, schedule: Q01DX009 (ip), vehicle: DMSO); 5 of 6 and 5 of 5 (dose: 6.0 mg/kg/injection, schedule: Q01DX009 (ip), vehicle: DMSO); 6 of 6 (dose: 25.0 mg/kg/injection, schedule: Q01DX009 (ip), vehicle: DMSO).
On to `C=CCSc1nc(N)nc2nc[nH]c12`, for which the survivor count (dose: 200.0 mg/kg/injection, schedule: Q01DX009 (ip), vehicle: saline sonified) is on record as 4 of 6 and the survivor count (dose: 400.0 mg/kg/injection, schedule: Q01DX009 (ip), vehicle: saline sonified) was 0 of 6.
Take `N=[N+]=CC(=O)OCC(N)C(=O)O` (configuration not stated): the T/C was 140 % of control (dose: 3.13 mg/kg/injection, schedule: Q01DX010 (ip), vehicle: saline) and 140 % of control (dose: 5.0 mg/kg/injection, schedule: Q01DX010 (ip), vehicle: water). Moreover, under “dose: 25.0 mg/kg/injection, schedule: Q01DX010 (ip), vehicle: saline”, the survivor count is recorded as 6 of 6.
Take `COc1ccc(NCCOc2ccccc2Br)cc1`: the T/C (dose: 200.0 mg/kg/injection, schedule: Q01DX009 (ip), vehicle: other) was 127 % of control.
Regarding `CC(C)(C)c1cc([N+](=O)[O-])cc(C(C)(C)C)c1O`, the survivor count is reported as 6 of 6 (dose: 100.0 mg/kg/injection, schedule: Q04DX003 (ip), vehicle: Klucel (hydroxypropylcellulose) (HPC)) and 5 of 6 (dose: 400.0 mg/kg/injection, schedule: Q04DX003 (ip), vehicle: Klucel (hydroxypropylcellulose) (HPC)).
For `CC(=O)[C@@]1(O)CC[C@H]2[C@@H]3C[C@H](C)C4=CC(=O)CC[C@]4(C)[C@H]3[C@@H](O)C[C@@]21C`, the T/C under setting [7] was 127 % of control.
In the case of `C[C@@H]1C[C@H]2[C@@H]3CCC4=CC(=O)C=C[C@]4(C)[C@@]3(F)[C@@H](O)C[C@]2(C)[C@@]1(O)C(=O)CO`, the T/C (dose: 25.0 mg/kg/injection, schedule: Q04DX003 (ip), vehicle: saline) is 127 % of control. Moreover, the survivor count (dose: 100.0 mg/kg/injection, schedule: Q04DX003 (ip), vehicle: saline) is recorded as 5 of 6; the survivor count (dose: 125.0 mg/kg/injection, schedule: Q04DX003 (ip), vehicle: saline) was 6 of 6; the survivor count (dose: 200.0 mg/kg/injection, schedule: Q04DX003 (ip), vehicle: saline) is given as 3 of 6.

Source of the values: PubChem BioAssay AID328 (DTP/NCI, 2004).
